Reference: the supplement of paper PMC10849652
The list shows a part of the results.

Sequences of proteins named here, by UniProt entry; tags and fusion partners are left off. A change or cut given only in a name is not applied to a line headed by its entry.
UniProt O14545: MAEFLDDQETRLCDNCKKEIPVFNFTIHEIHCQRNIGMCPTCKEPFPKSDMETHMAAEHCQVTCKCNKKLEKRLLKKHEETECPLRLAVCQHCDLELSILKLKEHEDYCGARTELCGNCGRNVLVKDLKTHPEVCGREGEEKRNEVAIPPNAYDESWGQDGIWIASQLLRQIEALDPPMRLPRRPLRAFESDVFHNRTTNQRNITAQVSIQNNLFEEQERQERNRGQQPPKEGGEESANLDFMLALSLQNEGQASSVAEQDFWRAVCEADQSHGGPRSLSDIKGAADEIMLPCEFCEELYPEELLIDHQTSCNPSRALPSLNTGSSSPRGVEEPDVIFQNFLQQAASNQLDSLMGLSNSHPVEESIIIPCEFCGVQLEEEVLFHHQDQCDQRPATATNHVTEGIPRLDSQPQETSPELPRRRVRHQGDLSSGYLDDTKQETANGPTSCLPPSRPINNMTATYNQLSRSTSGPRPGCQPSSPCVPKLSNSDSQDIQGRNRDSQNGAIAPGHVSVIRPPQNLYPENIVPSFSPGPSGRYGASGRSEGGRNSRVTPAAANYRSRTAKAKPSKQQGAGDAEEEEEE
UniProt P09493, whole entry, looked up: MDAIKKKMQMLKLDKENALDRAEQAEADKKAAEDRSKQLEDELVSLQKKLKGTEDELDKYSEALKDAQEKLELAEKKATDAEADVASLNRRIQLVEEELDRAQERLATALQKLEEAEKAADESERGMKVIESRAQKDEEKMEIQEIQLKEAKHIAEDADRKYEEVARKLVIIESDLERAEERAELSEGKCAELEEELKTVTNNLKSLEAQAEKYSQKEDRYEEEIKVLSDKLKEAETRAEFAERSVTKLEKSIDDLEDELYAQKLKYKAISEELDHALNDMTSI
UniProt P67936, whole entry, looked up: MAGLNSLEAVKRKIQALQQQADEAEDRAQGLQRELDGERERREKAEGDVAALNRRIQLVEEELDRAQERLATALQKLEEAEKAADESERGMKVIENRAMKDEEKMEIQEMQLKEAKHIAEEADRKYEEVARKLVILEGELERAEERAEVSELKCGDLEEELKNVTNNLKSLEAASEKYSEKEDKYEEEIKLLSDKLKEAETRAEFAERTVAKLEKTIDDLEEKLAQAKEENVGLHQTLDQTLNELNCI
UniProt O96008: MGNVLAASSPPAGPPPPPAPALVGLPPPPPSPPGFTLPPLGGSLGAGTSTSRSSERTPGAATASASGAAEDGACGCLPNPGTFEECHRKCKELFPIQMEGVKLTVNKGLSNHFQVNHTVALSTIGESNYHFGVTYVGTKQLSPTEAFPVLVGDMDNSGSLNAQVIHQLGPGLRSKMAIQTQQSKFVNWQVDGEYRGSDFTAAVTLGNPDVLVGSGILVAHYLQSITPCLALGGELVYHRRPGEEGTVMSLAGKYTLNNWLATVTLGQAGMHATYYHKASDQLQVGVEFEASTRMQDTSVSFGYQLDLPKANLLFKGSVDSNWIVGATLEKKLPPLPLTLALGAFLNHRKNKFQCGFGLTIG
UniProt P60174, whole entry, looked up: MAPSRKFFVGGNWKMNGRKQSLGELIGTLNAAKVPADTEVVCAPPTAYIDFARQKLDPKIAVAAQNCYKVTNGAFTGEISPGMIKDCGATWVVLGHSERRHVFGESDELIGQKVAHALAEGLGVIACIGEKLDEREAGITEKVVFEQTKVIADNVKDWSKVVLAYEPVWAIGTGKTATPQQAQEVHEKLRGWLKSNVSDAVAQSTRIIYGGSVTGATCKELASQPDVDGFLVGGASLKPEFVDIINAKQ
UniProt Q15645: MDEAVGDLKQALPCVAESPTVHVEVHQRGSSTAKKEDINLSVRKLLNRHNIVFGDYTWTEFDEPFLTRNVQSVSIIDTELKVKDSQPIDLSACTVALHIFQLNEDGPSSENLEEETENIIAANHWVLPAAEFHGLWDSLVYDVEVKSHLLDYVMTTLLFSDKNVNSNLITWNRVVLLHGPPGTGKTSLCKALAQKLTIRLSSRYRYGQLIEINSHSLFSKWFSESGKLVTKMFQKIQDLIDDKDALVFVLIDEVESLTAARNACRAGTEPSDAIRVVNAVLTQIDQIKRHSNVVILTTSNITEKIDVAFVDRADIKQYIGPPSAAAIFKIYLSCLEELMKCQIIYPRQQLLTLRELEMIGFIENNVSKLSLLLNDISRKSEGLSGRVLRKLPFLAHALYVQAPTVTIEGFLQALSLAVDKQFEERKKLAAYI
UniProt Q9NXH8: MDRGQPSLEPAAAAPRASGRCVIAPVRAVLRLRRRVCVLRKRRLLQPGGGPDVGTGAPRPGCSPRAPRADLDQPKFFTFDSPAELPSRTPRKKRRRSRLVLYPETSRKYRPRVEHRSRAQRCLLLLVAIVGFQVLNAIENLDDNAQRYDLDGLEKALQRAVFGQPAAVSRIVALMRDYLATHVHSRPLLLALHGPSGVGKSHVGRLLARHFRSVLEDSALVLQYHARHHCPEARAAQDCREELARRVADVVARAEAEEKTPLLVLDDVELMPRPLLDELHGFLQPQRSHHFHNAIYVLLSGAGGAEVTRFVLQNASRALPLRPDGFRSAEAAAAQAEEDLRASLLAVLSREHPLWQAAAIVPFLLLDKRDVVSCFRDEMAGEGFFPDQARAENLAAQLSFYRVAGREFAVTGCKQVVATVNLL
UniProt Q969M1: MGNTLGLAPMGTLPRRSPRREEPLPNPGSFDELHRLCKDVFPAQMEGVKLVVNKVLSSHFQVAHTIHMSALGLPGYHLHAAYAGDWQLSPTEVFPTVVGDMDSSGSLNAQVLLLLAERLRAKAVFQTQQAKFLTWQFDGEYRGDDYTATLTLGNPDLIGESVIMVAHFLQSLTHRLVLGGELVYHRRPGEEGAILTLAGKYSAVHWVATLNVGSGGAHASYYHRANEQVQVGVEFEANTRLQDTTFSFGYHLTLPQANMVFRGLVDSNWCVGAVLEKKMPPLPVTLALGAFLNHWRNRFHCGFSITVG
UniProt P48553, whole entry, looked up: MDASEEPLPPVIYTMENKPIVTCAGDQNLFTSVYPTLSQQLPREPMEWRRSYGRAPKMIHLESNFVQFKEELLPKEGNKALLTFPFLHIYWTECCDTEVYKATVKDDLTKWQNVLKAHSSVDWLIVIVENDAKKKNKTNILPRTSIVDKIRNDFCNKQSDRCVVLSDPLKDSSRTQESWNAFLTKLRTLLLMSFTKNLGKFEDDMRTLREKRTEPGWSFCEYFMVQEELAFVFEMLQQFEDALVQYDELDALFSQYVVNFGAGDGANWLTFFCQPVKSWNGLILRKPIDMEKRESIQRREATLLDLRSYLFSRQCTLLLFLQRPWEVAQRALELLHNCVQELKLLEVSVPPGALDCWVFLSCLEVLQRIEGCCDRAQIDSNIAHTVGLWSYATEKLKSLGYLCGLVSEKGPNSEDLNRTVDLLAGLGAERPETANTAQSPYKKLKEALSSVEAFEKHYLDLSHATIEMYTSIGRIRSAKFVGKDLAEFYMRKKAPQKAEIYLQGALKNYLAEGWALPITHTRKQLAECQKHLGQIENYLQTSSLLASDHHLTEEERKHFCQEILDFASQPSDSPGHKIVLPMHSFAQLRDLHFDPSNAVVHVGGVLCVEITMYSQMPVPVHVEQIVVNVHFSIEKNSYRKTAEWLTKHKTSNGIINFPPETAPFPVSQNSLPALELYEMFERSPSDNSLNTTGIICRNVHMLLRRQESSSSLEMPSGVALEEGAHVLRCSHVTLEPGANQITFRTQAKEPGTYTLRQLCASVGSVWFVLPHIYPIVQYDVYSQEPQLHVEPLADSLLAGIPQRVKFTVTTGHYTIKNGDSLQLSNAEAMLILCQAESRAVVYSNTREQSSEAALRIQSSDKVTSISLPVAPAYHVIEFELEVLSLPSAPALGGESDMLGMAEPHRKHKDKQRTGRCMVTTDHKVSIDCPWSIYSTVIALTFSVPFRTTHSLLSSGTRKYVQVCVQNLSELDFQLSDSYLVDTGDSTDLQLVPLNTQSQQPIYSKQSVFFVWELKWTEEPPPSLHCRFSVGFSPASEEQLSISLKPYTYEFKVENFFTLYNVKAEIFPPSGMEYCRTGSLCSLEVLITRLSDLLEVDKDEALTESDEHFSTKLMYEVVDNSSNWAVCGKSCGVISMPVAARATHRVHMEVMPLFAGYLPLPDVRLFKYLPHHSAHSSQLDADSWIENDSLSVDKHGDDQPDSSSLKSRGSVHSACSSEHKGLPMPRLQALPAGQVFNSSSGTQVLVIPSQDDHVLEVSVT
UniProt Q9BUZ4: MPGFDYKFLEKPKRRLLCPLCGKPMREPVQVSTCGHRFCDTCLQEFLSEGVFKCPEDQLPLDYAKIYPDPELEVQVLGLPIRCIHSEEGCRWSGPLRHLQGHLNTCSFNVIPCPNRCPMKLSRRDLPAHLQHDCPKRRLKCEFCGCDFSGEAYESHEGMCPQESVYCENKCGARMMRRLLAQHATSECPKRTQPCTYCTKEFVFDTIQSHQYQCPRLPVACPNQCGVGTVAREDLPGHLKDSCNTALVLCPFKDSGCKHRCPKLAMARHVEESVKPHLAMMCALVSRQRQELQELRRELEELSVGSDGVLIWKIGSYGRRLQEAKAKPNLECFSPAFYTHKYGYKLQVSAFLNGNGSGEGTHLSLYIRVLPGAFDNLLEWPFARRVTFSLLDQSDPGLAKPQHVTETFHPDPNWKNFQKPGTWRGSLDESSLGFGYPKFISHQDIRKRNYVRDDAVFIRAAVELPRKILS
UniProt O60704: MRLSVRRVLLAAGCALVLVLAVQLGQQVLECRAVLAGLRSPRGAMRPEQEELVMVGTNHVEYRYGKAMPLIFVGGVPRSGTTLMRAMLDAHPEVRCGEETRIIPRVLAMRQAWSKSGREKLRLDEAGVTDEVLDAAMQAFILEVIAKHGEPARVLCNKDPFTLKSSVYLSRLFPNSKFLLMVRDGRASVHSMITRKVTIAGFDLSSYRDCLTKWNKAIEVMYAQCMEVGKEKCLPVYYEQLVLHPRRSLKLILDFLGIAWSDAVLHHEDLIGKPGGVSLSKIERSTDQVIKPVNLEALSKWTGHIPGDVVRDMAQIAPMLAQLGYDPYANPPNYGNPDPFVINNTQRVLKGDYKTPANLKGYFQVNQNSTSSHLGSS
UniProt O95985: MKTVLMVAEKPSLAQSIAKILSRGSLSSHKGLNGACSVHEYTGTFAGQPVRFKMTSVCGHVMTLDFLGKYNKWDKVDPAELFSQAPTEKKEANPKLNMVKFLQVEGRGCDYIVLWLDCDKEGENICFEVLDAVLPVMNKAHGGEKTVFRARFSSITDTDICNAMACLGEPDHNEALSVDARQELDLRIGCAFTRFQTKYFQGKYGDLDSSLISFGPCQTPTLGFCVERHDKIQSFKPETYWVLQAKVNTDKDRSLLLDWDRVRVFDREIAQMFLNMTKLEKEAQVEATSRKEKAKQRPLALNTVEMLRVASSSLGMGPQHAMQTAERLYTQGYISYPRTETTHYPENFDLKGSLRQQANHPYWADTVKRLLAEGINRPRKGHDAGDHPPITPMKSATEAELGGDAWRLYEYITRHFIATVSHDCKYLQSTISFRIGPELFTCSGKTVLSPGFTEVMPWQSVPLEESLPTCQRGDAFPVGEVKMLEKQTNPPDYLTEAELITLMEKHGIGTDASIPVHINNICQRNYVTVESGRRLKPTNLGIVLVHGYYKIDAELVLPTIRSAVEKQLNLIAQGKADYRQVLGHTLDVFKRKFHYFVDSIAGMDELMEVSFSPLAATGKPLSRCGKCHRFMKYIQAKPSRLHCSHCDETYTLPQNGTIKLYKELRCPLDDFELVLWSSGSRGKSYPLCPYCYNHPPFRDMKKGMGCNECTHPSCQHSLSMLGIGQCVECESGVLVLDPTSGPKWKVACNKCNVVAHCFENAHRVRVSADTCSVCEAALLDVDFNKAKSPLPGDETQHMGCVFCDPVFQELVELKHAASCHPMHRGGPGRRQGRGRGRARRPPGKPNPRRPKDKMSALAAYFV
UniProt Q9BSV6: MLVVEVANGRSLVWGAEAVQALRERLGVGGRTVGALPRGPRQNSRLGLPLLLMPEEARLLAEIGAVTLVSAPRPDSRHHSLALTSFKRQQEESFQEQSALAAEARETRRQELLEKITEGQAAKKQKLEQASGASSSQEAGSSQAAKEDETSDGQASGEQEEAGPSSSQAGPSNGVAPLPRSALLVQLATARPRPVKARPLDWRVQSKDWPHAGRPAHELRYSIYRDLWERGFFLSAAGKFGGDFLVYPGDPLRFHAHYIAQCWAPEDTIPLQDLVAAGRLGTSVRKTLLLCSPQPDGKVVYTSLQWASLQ
UniProt O14656: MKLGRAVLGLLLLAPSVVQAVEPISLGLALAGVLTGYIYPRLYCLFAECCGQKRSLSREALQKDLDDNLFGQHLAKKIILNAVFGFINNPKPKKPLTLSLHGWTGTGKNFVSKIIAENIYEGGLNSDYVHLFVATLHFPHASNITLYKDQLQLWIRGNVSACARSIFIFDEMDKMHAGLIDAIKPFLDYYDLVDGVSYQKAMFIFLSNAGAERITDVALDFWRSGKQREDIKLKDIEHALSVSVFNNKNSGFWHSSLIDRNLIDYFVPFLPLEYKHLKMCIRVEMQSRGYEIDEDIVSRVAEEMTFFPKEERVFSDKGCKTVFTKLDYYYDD

How the values were obtained:
Assay in all cases: log2 fold change, soluble protein after heating vs DMSO (PISA); higher = thermal stabilisation; K562 cells, 10 uM, 30 min; active = over 0.2 and 3.5 SD of the protein, either way, in both replicates (recomputed)
[1] = compound: CN1CCN(CCOc2cc(OC3CCOCC3)c3c(Nc4c(Cl)ccc5c4OCO5)ncnc3c2)CC1 [saracatinib]
How it was run: (§1)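 Quantification of soluble protein used TMTpro 16plex LC-MS/MS, with channel sums equalised. Samples were the supernatant after 21,000xg for 90 min of pooled aliquots from K562 cells (2×10^6 cells/mL) treated with 10 μM compound for 30 min, heated for 3 min over 48°C-58°C, and extracted in PBS with 0.5% NP-40 at 4°C. Values, from duplicates, describe thermal stability against control samples on a log2 fold-change scale.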

[2] = compound: CN1CCN(c2nc(C3=C(c4c[nH]c5ccccc45)C(=O)NC3=O)c3ccccc3n2)CC1 [sotrastaurin]
How it was run: as §1

[3] = compound: CN1CC[C@H](c2c(O)cc(O)c3c(=O)cc(-c4ccccc4Cl)oc23)[C@H](O)C1 [alvocidib]
How it was run: as §1

[4] = compound: CN1CCc2c(c3ccccc3n2Cc2ccc(C(=O)NO)cc2)C1 [Tubastatin A]
How it was run: as §1

[5] = compound: CNC(=O)C1=CC=CC=C1NC2=NC(=NC=C2Cl)NC3=C(C=C(C=C3)N4CCOCC4)OC
How it was run: as §1

[6] = compound: CNC(=O)c1ccc(Nc2ncc(C(F)(F)F)c(NCc3nccnc3N(C)S(C)(=O)=O)n2)cc1 [defactinib]
How it was run: as §1

[7] = compound: CNCc1ccc(-c2[nH]c3cc(F)cc4c3c2CCNC4=O)cc1 [rucaparib]
How it was run: as §1

[8] = compound: CNc1nc(-c2ccc3c(N)n[nH]c3c2)cc(N2C[C@@H](C(=O)NC3CCCCC3)CC[C@H]2C)n1
How it was run: as §1

[9] = compound: COC(=O)N[C@@H](C)CNc1nccc(-c2cn(C(C)C)nc2-c2cc(Cl)cc(NS(C)(=O)=O)c2F)n1 [encorafenib]
How it was run: as §1

[10] = compound: COC(=O)[C@H](CCSC)NC(=O)C1=C(C=C(C=C1)NC[C@H](CS)N)C2=CC=CC=C2
How it was run: as §1

Measured: log2 fold change

TRAPPC9 isoform 2 (UniProt Q96Q05)
inactive: [1] -0.013 | [2] 0.003 | [3] -0.035 | [4] -0.08 | [5] -0.023 | [6] -0.056 | [7] 0.008 | [8] 0.023 | [9] -0.014 | [10] -0.005

TRAFD1 (UniProt O14545)
inactive: [1] 0.09 | [2] 0.028 | [3] -0.057 | [4] 0.004 | [5] -0.032 | [6] 0.002 | [7] 0.01 | [8] -0.02 | [9] -0.02 | [10] 0.054

TPP2 (UniProt Q5VZU9)
inactive: [1] -0.33 | [2] -0.155 | [3] 0.109 | [4] 0.294 | [5] -0.018 | [6] 0.327 | [7] 0.315 | [8] 0.134 | [9] 0.167 | [10] -0.118

TPM1 isoform 4 (UniProt P09493)
inactive: [1] -0.017 | [2] -0.002 | [3] -0.016 | [4] 0.005 | [5] -0.015 | [6] -0.019 | [7] -0.066 | [8] -0.039 | [9] -0.041 | [10] 0.033

TPM4 isoform 2 (UniProt P67936)
inactive: [1] -0.023 | [2] 0.033 | [3] 0.058 | [4] -0.015 | [5] 0.014 | [6] 0 | [7] -0.07 | [8] 0.049 | [9] -0.081 | [10] -0.061

TRAF2 (UniProt Q12933)
inactive: [1] 0.011 | [2] 0.009 | [3] -0.01 | [4] -0.013 | [5] 0.019 | [6] -0.021 | [7] -0.095 | [8] -0.004 | [9] -0.037 | [10] -0.014

TRNT1 (UniProt Q96Q11)
inactive: [1] 0.01 | [2] 0.04 | [3] -0.007 | [4] -0.028 | [5] -0.032 | [6] -0.003 | [7] 0.056 | [8] -0.009 | [9] -0.01 | [10] -0.005

TSC22D2 (UniProt O75157)
inactive: [1] 0.03 | [2] -0.001 | [3] -0.006 | [4] -0.081 | [5] -0.022 | [6] -0.054 | [7] -0.016 | [8] -0.072 | [9] -0.092 | [10] 0.101

TNIK isoform 6 (UniProt Q9UKE5)
inactive: [1] -0.052 | [2] -0.043 | [3] 0.033 | [4] -0.001 | [5] 0.002 | [6] -0.005 | [7] 0.093 | [8] 0.007 | [9] 0.039 | [10] 0.028

TRMT61B (UniProt Q9BVS5)
inactive: [1] 0.049 | [2] 0.041 | [3] 0.11 | [4] -0.027 | [5] 0.028 | [6] 0.087 | [7] 0.118 | [8] -0.039 | [9] 0.007 | [10] 0.011

TOMM40 (UniProt O96008)
inactive: [1] 0.049 | [2] 0.011 | [3] -0.026 | [4] -0.009 | [5] -0.013 | [6] 0.007 | [7] -0.064 | [8] -0.021 | [9] 0.015 | [10] -0.008

TPI1 (UniProt P60174)
inactive: [1] 0.032 | [2] 0.065 | [3] -0.004 | [4] -0.022 | [5] 0.069 | [6] -0.005 | [7] -0.013 | [8] -0.019 | [9] -0.039 | [10] 0.024

TRIP13 (UniProt Q15645)
inactive: [1] 0.042 | [2] -0.027 | [3] -0.067 | [4] -0.071 | [5] -0.063 | [6] -0.034 | [7] -0.016 | [8] -0.002 | [9] 0.027 | [10] -0.006

TOR4A (UniProt Q9NXH8)
inactive: [1] -0.095 | [2] -0.151 | [3] 0.116 | [4] 0.057 | [5] 0.018 | [6] 0.032 | [7] 0.16 | [8] 0.141 | [9] 0.064 | [10] -0.073

TRMU (UniProt O75648)
inactive: [1] -0.033 | [2] 0.01 | [3] -0.087 | [4] 0.002 | [5] 0.032 | [6] -0.146 | [7] 0.045 | [8] 0.005 | [9] 0.07 | [10] -0.017

TOMM40L (UniProt Q969M1)
inactive: [1] 0.057 | [2] -0.004 | [3] 0.009 | [4] 0.015 | [5] -0.074 | [6] -0.031 | [7] -0.021 | [8] -0.089 | [9] 0.011 | [10] 0.013

TOP1 (UniProt P11387)
inactive: [1] -0.105 | [2] -0.053 | [3] 0.259 | [4] 0.026 | [5] 0.018 | [6] 0.26 | [7] 0.421 | [8] 0.223 | [9] 0.224 | [10] 0.017

TOR1B (UniProt O14657)
inactive: [1] 0.025 | [2] -0.001 | [3] 0.017 | [4] -0.025 | [5] -0.031 | [6] -0.027 | [7] 0.001 | [8] -0.014 | [9] 0.032 | [10] 0.03

TRRAP (UniProt Q9Y4A5)
inactive: [1] 0.076 | [2] 0.035 | [3] 0.005 | [4] -0.031 | [5] -0.01 | [6] -0.021 | [7] -0.01 | [8] -0.029 | [9] 0.01 | [10] 0.001

TPRKB (UniProt Q9Y3C4)
inactive: [1] 0.022 | [2] 0.001 | [3] -0.043 | [4] 0.03 | [5] -0.024 | [6] -0.036 | [7] -0.006 | [8] -0.019 | [9] 0.031 | [10] -0.015

TRAPPC10 (UniProt P48553)
inactive: [1] -0.01 | [2] -0.015 | [3] -0.05 | [4] 0.065 | [5] -0.001 | [6] -0.062 | [7] 0.037 | [8] 0.043 | [9] 0.023 | [10] 0.017

Retrieved one by one from the list above, two records:
TRRAP (UniProt Q9Y4A5)
inactive: [1] 0.076 | [2] 0.035 | [3] 0.005 | [4] -0.031 | [5] -0.01 | [6] -0.021 | [7] -0.01 | [8] -0.029 | [9] 0.01 | [10] 0.001

TRAPPC10 (UniProt P48553)
inactive: [1] -0.01 | [2] -0.015 | [3] -0.05 | [4] 0.065 | [5] -0.001 | [6] -0.062 | [7] 0.037 | [8] 0.043 | [9] 0.023 | [10] 0.017

Next part

TRA2B (UniProt P62995)
inactive: [1] -0.112 | [2] 0.037 | [3] 0.356 | [4] 0.016 | [5] -0.246 | [6] 0.227 | [7] 0.312 | [8] -0.03 | [9] 0.081 | [10] 0.067

TNKS1BP1 (UniProt Q9C0C2)
inactive: [1] 0.022 | [2] 0.025 | [3] 0.021 | [4] 0.037 | [5] -0.049 | [6] -0.01 | [7] 0.04 | [8] -0.007 | [9] -0.074 | [10] 0.033

TRAF4 (UniProt Q9BUZ4)
inactive: [1] -0.09 | [2] 0 | [3] 0.058 | [4] -0.011 | [5] 0.102 | [6] 0.098 | [7] 0.173 | [8] -0.007 | [9] -0.039 | [10] 0.137

TPST2 (UniProt O60704)
inactive: [1] -0.024 | [2] 0.02 | [3] -0.042 | [4] 0.003 | [5] 0.002 | [6] 0.002 | [7] 0.046 | [8] 0.012 | [9] 0.054 | [10] -0.021

TOP3B (UniProt O95985)
inactive: [1] -0.039 | [2] -0.061 | [3] 0.08 | [4] 0.025 | [5] -0.016 | [6] 0.124 | [7] 0.133 | [8] 0.12 | [9] 0.034 | [10] -0.06

TSEN34 (UniProt Q9BSV6)
inactive: [1] -0.033 | [2] -0.008 | [3] 0.07 | [4] -0.033 | [5] -0.054 | [6] -0.051 | [7] -0.013 | [8] 0.007 | [9] 0.005 | [10] -0.046

TSEN15 (UniProt Q8WW01)
inactive: [1] -0.022 | [2] -0.085 | [3] -0.082 | [4] 0.033 | [5] -0.054 | [6] -0.072 | [7] -0.076 | [8] -0.009 | [9] 0.003 | [10] 0.088

TOR1A (UniProt O14656)
inactive: [1] 0.038 | [2] 0.065 | [3] -0.005 | [4] 0.012 | [5] -0.001 | [6] -0.003 | [7] -0.002 | [8] -0.038 | [9] -0.067 | [10] -0.023
